Laboratory results published in publication doi:10.1101/2022.06.19.496704.
No constants are given. Whether binding was seen depends on the method and setting. Binding seen in cells or lysates may run through a third protein. Some binding calls cover weakened binding; strength is not graded here.

By UniProt entry, the sequences of proteins in these tests, tags left out.
UniProt P28023: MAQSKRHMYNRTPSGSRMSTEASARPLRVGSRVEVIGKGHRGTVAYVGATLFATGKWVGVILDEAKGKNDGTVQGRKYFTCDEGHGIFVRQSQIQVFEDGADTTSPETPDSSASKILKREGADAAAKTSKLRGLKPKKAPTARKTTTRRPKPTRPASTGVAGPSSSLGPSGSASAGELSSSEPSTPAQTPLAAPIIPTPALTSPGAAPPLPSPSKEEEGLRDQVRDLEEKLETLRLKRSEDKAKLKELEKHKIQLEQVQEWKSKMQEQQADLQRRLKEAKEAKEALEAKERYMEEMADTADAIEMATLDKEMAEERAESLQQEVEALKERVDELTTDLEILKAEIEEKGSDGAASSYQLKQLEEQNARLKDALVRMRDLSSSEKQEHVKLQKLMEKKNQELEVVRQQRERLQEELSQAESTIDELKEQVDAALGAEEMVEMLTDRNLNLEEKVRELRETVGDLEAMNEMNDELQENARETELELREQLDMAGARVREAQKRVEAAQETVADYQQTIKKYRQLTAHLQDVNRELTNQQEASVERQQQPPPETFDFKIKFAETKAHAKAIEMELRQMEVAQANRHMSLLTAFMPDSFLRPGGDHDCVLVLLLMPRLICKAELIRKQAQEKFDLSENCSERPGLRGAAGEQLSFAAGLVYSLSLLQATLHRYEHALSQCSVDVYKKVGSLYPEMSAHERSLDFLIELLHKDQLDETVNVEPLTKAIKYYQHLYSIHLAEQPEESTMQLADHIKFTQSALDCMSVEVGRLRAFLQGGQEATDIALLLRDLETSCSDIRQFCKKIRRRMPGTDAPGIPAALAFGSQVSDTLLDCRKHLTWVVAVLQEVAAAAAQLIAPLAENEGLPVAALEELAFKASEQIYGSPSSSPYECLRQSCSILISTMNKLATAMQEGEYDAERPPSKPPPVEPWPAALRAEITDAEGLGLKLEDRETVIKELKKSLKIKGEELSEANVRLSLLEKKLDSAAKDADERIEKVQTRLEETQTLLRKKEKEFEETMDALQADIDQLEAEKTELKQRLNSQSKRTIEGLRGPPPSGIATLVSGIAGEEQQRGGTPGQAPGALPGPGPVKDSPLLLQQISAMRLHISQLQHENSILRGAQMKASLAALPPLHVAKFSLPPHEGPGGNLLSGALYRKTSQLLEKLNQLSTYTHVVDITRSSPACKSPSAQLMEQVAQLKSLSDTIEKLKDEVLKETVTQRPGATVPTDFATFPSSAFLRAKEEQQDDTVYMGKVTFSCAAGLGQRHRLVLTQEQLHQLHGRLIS
UniProt Q14203: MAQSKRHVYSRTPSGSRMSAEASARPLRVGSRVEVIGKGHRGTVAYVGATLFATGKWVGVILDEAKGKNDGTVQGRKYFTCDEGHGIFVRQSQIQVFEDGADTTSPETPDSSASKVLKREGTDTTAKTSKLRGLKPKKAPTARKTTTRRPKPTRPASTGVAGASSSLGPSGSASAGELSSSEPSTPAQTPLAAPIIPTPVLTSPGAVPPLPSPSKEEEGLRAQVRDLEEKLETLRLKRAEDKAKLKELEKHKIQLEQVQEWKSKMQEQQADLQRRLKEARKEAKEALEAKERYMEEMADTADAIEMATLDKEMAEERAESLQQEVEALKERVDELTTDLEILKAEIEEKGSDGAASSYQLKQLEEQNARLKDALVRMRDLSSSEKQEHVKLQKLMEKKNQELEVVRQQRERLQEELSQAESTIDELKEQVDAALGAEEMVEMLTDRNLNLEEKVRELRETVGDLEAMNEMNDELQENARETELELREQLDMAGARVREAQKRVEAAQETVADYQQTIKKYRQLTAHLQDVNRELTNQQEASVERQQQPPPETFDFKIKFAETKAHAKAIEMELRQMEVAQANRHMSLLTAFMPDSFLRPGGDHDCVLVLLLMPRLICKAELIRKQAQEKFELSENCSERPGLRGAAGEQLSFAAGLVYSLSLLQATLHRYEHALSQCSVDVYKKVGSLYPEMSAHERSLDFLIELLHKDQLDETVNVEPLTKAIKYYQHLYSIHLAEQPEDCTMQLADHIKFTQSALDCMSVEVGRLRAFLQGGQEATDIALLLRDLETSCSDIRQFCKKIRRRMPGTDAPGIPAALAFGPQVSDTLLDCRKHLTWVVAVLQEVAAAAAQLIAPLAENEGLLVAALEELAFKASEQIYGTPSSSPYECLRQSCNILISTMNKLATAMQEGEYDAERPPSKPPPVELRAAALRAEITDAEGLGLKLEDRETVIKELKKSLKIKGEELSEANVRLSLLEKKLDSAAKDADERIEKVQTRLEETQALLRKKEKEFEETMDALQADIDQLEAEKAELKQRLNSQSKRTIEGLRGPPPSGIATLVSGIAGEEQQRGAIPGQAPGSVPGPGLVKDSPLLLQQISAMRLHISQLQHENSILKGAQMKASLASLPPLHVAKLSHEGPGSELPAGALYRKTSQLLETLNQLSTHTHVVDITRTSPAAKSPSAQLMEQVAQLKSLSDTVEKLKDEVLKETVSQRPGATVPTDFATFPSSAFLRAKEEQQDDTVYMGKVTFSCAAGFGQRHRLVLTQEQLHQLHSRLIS
UniProt Q9UJW0: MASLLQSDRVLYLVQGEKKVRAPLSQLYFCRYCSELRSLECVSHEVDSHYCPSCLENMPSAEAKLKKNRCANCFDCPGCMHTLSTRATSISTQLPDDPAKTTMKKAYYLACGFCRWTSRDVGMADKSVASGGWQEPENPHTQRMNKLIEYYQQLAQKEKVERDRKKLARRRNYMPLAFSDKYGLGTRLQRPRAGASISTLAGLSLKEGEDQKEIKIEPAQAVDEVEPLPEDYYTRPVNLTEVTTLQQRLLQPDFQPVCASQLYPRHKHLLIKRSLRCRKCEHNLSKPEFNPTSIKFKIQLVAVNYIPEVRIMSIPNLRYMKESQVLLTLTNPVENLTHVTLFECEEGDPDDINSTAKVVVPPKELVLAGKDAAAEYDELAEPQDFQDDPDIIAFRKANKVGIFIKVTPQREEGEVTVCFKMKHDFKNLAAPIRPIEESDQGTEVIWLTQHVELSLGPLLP

What was measured:
[1] = target: AviGFP-tagged p150^Glued (full length) (UniProt P28023); assay: pull-down
[2] = target: p150^Glued (endogenous, HEK293T) (human (endogenous in HEK293T)) (UniProt Q14203); assay: co-IP

binding [1]: binds | binding [2]: binds
Substance: p62 (dynactin Arp1-rod protein, endogenous, HEK293T) (from UniProt Q9UJW0 1-460)
